Test results as given in US20130065969A9, “Odour Compounds” (priority 2009, published 2013).

Experiment: Odour description
Settings: neat compound

CC/C=C(\C)C(C)OC(C)(C)COC(=O)C1CC1 (centres unmarked) [Example 1, (3″E)-2′-Methyl-2′-(3″-methylhex-3″-en-2″-yloxy)propyl cyclopropanecarboxylate]
Odour description: musky, powdery, spicy with peppery aspects and some reminiscence to Cashmeran

CC/C(=C\C(C)C)C(C)OC(C)(C)COC(=O)C1CC1 (centres unmarked) [Example 2, (3″E)-2′-(3″-Ethyl-5″-methylhex-3″-en-2″yloxy)-2′-methylpropyl cyclopropanecarboxylate]
Odour description: musky, powdery with slightly waxy facets and some reminiscence to macrocyclic musks
